# Assay results taken from the supplement of paper PMC8728848.
# The other results are listed elsewhere or left out.
# B1: S100A12 (Homo sapiens), P80511 (protein)
# chain: MTKLEEHLEGIVNIFHQYSVRKGHFDTLSKGELKQLLTKELANTIKNIKDKAVIDEIFQGLDANQDEQVDFQEFISLVAIALKAAHYHTHKE
# What was measured:
# Experiment in all cases: glycan array binding signal (z-score within array); higher = stronger binding
# Settings in all cases: glycan notation: IUPAC condensed, linker removed
# [1] = molecular target: Neu5Ac(a2-3)Gal(b1-3)GalNAc(b1-4)[Neu5Ac(a2-3)]Gal(b1-4)Glc
# Procedure, shortened: (§1)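 Negative Z-scores can be read as non-binding. The Z-score is calculated within each array and then averaged across arrays of one protein sequence at different concentrations or buffers and across linkers. Arrays, 3228 in all, were curated from the Consortium for Functional Glycomics database and kept only where the protein sequence was available.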
# [2] = molecular target: Neu5Ac(a2-3)Gal(b1-3)GalNAc6S
# Procedure, shortened: as §1
# [3] = molecular target: Neu5Ac(a2-3)Gal(b1-3)GlcNAc
# Procedure, shortened: as §1
# [4] = molecular target: Neu5Ac(a2-3)Gal(b1-3)GlcNAc(b1-3)Gal(b1-3)GlcNAc
# Procedure, shortened: as §1
# [5] = molecular target: Neu5Ac(a2-3)Gal(b1-3)GlcNAc(b1-3)Gal(b1-4)GlcNAc
# Procedure, shortened: as §1
# [6] = molecular target: Neu5Ac(a2-3)Gal(b1-3)GlcNAc6S
# Procedure, shortened: as §1
# [7] = molecular target: Neu5Ac(a2-3)Gal(b1-3)[Fuc(a1-4)]GlcNAc
# Procedure, shortened: as §1
# [8] = molecular target: Neu5Ac(a2-3)Gal(b1-3)[Fuc(a1-4)]GlcNAc(b1-3)Gal(b1-4)[Fuc(a1-3)]GlcNAc
# Procedure, shortened: as §1
# [9] = molecular target: Neu5Ac(a2-3)Gal(b1-3)[Neu5Ac(a2-3)Gal(b1-4)]GlcNAc
# Procedure, shortened: as §1
# [10] = molecular target: Neu5Ac(a2-3)Gal(b1-3)[Neu5Ac(a2-6)]GalNAc
# Procedure, shortened: as §1
# Neu5Ac(a2-3)Gal(b1-4)Glc = molecular target: Neu5Ac(a2-3)Gal(b1-4)Glc
# Procedure, shortened: as §1
# [11] = molecular target: Neu5Ac(a2-3)Gal(b1-4)GlcNAc
# Procedure, shortened: as §1
# [12] = molecular target: Neu5Ac(a2-3)Gal(b1-4)GlcNAc(b1-2)Man(a1-3)[Neu5Ac(a2-3)Gal(b1-4)GlcNAc(b1-2)Man(a1-6)]Man(b1-4)GlcNAc(b1-4)GlcNAc
# Procedure, shortened: as §1
# [13] = molecular target: Neu5Ac(a2-3)Gal(b1-4)GlcNAc(b1-3)Gal(b1-3)GlcNAc
# Procedure, shortened: as §1
# [14] = molecular target: Neu5Ac(a2-3)Gal(b1-4)GlcNAc(b1-3)Gal(b1-4)GlcNAc
# Procedure, shortened: as §1
# [15] = molecular target: Neu5Ac(a2-3)Gal(b1-4)GlcNAc(b1-3)Gal(b1-4)GlcNAc(b1-3)Gal(b1-4)GlcNAc
# Procedure, shortened: as §1
# [16] = molecular target: Neu5Ac(a2-3)Gal(b1-4)GlcNAc(b1-3)Gal(b1-4)[Fuc(a1-3)]GlcNAc
# Procedure, shortened: as §1
# [17] = molecular target: Neu5Ac(a2-3)Gal(b1-4)GlcNAc(b1-6)[Gal(b1-3)]GalNAc
# Procedure, shortened: as §1
# [18] = molecular target: Neu5Ac(a2-3)Gal(b1-4)GlcNAc6S
# Procedure, shortened: as §1
# [19] = molecular target: Neu5Ac(a2-3)Gal(b1-4)[Fuc(a1-3)]GlcNAc
# Procedure, shortened: as §1
# [20] = molecular target: Neu5Ac(a2-3)Gal(b1-4)[Fuc(a1-3)]GlcNAc(b1-3)Gal
# Procedure, shortened: as §1
# [21] = molecular target: Neu5Ac(a2-3)Gal(b1-4)[Fuc(a1-3)]GlcNAc(b1-3)Gal(b1-4)GlcNAc
# Procedure, shortened: as §1
# [22] = molecular target: Neu5Ac(a2-3)Gal(b1-4)[Fuc(a1-3)]GlcNAc(b1-3)Gal(b1-4)[Fuc(a1-3)]GlcNAc(b1-3)Gal(b1-4)[Fuc(a1-3)]GlcNAc
# Procedure, shortened: as §1
# [23] = molecular target: Neu5Ac(a2-3)Gal(b1-4)[Fuc(a1-3)]GlcNAc6S
# Procedure, shortened: as §1
# [24] = molecular target: Neu5Ac(a2-3)Gal6S(b1-4)GlcNAc
# Procedure, shortened: as §1
# [25] = molecular target: Neu5Ac(a2-3)Gal6S(b1-4)[Fuc(a1-3)]GlcNAc
# Procedure, shortened: as §1
# Neu5Ac(a2-3)GalNAc = molecular target: Neu5Ac(a2-3)GalNAc
# Procedure, shortened: as §1
# [26] = molecular target: Neu5Ac(a2-3)GalNAc(b1-4)GlcNAc
# Procedure, shortened: as §1
# [27] = molecular target: Neu5Ac(a2-3)[GalNAc(b1-4)]Gal(b1-4)Glc
# Procedure, shortened: as §1
binder,measurement,setting,value
B1,glycan array binding signal (z-score),[1],-0.635
same,glycan array binding signal (z-score),[2],0.727
same,glycan array binding signal (z-score),[3],-0.277
same,glycan array binding signal (z-score),[4],-0.286
same,glycan array binding signal (z-score),[5],-0.505
same,glycan array binding signal (z-score),[6],1.18
same,glycan array binding signal (z-score),[7],-0.182
same,glycan array binding signal (z-score),[8],0.446
same,glycan array binding signal (z-score),[9],-0.498
same,glycan array binding signal (z-score),[10],0.07
same,glycan array binding signal (z-score),Neu5Ac(a2-3)Gal(b1-4)Glc,0.342
same,glycan array binding signal (z-score),[11],-0.596
same,glycan array binding signal (z-score),[12],-1.1
same,glycan array binding signal (z-score),[13],-0.66
same,glycan array binding signal (z-score),[14],0.229
same,glycan array binding signal (z-score),[15],-1.23
same,glycan array binding signal (z-score),[16],0.695
same,glycan array binding signal (z-score),[17],-0.487
same,glycan array binding signal (z-score),[18],0.426
same,glycan array binding signal (z-score),[19],-0.296
same,glycan array binding signal (z-score),[20],-0.943
same,glycan array binding signal (z-score),[21],0.858
same,glycan array binding signal (z-score),[22],-0.324
same,glycan array binding signal (z-score),[23],0.678
same,glycan array binding signal (z-score),[24],0.433
same,glycan array binding signal (z-score),[25],0.736
same,glycan array binding signal (z-score),Neu5Ac(a2-3)GalNAc,-0.554
same,glycan array binding signal (z-score),[26],-0.355
same,glycan array binding signal (z-score),[27],-0.308

# 2 entries picked at random from the list so far, as already listed:
binder,measurement,setting,value
B1,glycan array binding signal (z-score),[19],-0.296
same,glycan array binding signal (z-score),[27],-0.308
